Assay results as given in US20260166084A1, “NOVEL DRUG-INDUCIBLE DEGRADATION TAGS” (THE INSTITUTE OF CANCER RESEARCH: ROYAL CANCER HOSPITAL, priority 2022, published 2026).
Results are given in words; binding and its absence hold for the method and conditions named. Some results given as binding are weak or reduced against the parent protein; the word gives no strength. Tags and fused reporters may be left off the sequences shown.

Chains of the proteins cited; added tags and fusions are not shown. Lines headed by an entry give the natural chain unless they say otherwise; changes in a name come on top.
UniProt Q96SW2: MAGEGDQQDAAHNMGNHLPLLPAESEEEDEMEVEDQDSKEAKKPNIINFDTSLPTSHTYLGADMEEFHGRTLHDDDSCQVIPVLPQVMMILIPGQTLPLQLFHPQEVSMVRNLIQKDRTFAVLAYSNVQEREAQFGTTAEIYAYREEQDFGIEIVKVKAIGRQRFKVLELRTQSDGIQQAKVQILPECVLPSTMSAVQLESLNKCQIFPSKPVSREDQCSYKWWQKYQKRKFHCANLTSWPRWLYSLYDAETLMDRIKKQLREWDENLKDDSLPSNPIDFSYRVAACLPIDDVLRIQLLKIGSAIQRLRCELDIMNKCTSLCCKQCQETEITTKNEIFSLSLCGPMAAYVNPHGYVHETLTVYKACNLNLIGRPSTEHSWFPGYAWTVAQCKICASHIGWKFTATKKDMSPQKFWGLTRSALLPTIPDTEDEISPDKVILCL

Experiments:
[1] = target: complex formed between CRBN/DDB1 and iberdomide (UniProt Q96SW2); test: TR-FRET displacement of Sulfo-Cy5 Aiolos peptide probe from 5 nM CRBN/DDB1 with 10 uM iberdomide
[2] = target: complex formed between CRBN/DDB1 and pomalidomide (UniProt Q96SW2); test: TR-FRET displacement of Sulfo-Cy5 Aiolos peptide probe from 5 nM CRBN/DDB1 with 10 uM pomalidomide
[3] = target: complex formed between CRBN/DDB1 and lenalidomide (UniProt Q96SW2); test: TR-FRET displacement of Sulfo-Cy5 Aiolos peptide probe from 5 nM CRBN/DDB1 with 10 uM lenalidomide
[4] = target: complex formed between CRBN/DDB1 and iberdomide (UniProt Q96SW2); test: size exclusion chromatography with SDS-PAGE of fractions: 15 uM CRBN/DDB1, 50 uM iTAG2, 100 uM iberdomide
[5] = target: complex formed between CRBN/DDB1 and iberdomide (UniProt Q96SW2); test: size exclusion chromatography with SDS-PAGE of fractions, in the presence of iberdomide

Measured: binding

B1: iTAG1 (DCD23) (designed binder)
chain: PNVLMVHKRSHTGERPLQCEICGFTCRQKGNLLRHIKLHSGEKPFKCHLCNYACRRRDAL
binds: [1] | [2] | [3]

B2: iTAG2 (DCD23mut) (designed binder)
chain: PNVLMVHNESHTGEIPLQCEICGFTCEQAGNLLNHIELHSGEIPFKCHLCNYACRRRDAL
binds: all assays above
